Measurements as given in publication PMC10775674.
Results are given in words; binding and its absence hold for the method and conditions named. Binding seen in cells or lysates may run through a third protein. Tags and fused reporters may be left off the sequences shown.

Biological target: Flag-tagged Vimentin ∆Head-Tail deletion mutant
Test: co-IP; 293T cells co-transfected with Flag-tagged Vimentin (FL or deletion mutants) and Myc-NEURL3; western blot

B1: Myc-NEURL3 (enzyme, UniProt Q96EH8 1-262)
chain: MGAQLCFEANAKAPREALRFHAEAKGAQVRLDTRGCIAHRRTTFHDGIVFSQRPVRLGERVALRVLREESGWCGGLRVGFTRLDPACVSVPSLPPFLCPDLEEQSPTWAAVLPEGCALTGDLVRFWVDRRGCLFAKVNAGCRLLLREGVPVGAPLWAVMDVYGTTKAIELLDPTASRLPTPMPWDLSNKAVPEPKATPGEECAICFYHAANTRLVPCGHTYFCRYCAWRVFSDTAKCPVCRWQIEAVAPAQGPPALRVEEGS
With B1 the binding was “no binding”.
